Results are given in words; binding and its absence hold for the method and conditions named. In cells and extracts the contact can be indirect. Some results given as binding are weak or reduced against the parent protein; the word gives no strength.
Key:
[1] = molecular target: E3 ubiquitin ligase Itch (mouse (endogenous in splenic B cells of C57BL/6 mice)) (UniProt Q8C863); assay: co-IP; cell lysates incubated overnight at 4 °C with antibody, protein A/G magnetic beads, five washes with NP-40 lysis buffer, immunoblot; cells and precipitating antibody told only in Supplementary Figure 2d
[2] = molecular target: E3 ubiquitin ligase Itch (mouse (endogenous in splenic B cells of C57BL/6 mice)) (UniProt Q8C863); assay: co-IP; lysate of splenic B cells from 7~9-week-old C57BL/6 mice precipitated with anti-Itch antibodies or isotype control IgG, protein A/G magnetic beads, washes with NP-40 lysis buffer, immunoblot

Amino acid sequences for entries named in this document (tags omitted).
UniProt Q8C863: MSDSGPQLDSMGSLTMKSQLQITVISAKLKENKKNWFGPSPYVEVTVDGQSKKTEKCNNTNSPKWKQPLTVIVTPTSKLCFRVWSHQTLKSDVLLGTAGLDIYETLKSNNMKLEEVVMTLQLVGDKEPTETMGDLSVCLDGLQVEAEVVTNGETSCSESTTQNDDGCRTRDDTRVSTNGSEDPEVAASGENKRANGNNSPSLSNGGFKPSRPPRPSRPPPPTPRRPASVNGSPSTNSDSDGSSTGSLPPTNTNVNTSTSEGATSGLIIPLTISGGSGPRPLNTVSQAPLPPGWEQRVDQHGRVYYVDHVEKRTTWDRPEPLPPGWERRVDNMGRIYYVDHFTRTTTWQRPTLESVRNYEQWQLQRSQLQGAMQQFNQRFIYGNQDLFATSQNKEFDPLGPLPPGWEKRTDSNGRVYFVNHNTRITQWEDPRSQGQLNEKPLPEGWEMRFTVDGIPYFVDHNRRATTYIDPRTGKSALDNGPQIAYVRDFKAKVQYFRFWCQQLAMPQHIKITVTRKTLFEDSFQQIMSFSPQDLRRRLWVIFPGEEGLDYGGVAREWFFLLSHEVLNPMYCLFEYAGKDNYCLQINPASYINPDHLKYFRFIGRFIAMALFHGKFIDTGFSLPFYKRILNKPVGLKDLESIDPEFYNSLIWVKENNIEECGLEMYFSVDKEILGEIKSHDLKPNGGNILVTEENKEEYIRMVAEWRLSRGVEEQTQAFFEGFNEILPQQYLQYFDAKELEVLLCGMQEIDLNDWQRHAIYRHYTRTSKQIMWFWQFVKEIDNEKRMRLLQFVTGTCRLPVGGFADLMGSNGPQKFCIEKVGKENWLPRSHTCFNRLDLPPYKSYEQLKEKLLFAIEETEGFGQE
UniProt Q9R1E0: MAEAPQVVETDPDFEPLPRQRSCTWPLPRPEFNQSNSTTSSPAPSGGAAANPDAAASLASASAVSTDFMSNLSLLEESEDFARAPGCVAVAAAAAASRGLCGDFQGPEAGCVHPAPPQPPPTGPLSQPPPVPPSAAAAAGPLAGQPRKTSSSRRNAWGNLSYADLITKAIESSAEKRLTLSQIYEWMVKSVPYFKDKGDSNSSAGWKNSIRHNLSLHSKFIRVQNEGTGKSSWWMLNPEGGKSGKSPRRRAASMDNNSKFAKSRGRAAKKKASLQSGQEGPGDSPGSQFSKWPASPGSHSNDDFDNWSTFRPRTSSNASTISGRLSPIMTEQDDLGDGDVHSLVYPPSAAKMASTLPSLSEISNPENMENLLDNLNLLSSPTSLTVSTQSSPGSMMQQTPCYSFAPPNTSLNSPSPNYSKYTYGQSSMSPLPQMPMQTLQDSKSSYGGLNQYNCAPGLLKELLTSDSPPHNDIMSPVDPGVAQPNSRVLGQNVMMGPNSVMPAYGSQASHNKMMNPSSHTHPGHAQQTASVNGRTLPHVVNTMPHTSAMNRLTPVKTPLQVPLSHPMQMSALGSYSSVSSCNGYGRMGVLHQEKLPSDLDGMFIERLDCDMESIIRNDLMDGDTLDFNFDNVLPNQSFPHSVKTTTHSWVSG

| Molecule | binding [1] | binding [2] |
| --- | --- | --- |
| transcription factor Foxo1 (from UniProt Q9R1E0 1-652) | binds | – |
| transcription factor JunB (protein, UniProt P09450 1-344) MCTKMEQPFYHDDSYAAAGYGRSPGSLSLHDYKLLKPTLALNLADPYRGLKGPGARGPGPEGSGAGSYFSGQGSDTGASLKLASTELERLIVPNSNGVITTTPTPPGQYFYPRGGGSGGGTGGGVTEEQEGFADGFVKALDDLHKMNHVTPPNVSLGASGGPQAGPGGVYAGPEPPPVYTNLSSYSPASAPSGGSGTAVGTGSSYPTATISYLPHAPPFAGGHPAQLGLSRGASAFKEEPQTVPEARSRDATPPVSPINMEDQERIKVERKRLRNRLAATKCRKRKLERIARLEDKVKTLKAENAGLSSAAGLLREQVAQLKQKVMTHVSNGCQLLLGVKGHAF | – | binds |

From article PMC6344599
